Measurements reported in PubChem BioAssay AID652259 (Drosophila RNAi Screening Center, 2013).

Test: 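Identify new Wingless signalling regulators in fly cells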 (primary screen)
System: Drosophila clone 8 imaginal disc epithelial cells
Reagents: long dsRNA against Drosophila genes
Challenge: pathway stimulated by co-transfected Wingless expression plasmid
Detection: 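Dual luciferase reads per well after Wingless plasmid stimulation: reporter firefly light and Renilla control light; activity is firefly divided by Renilla, a ratio not deposited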
Direction: firefly reporter light: higher = more Wg reporter light, before normalisation; Renilla control light: higher = more transfected or surviving cells
Rule for the call: 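Strong candidates differ from their plate mean by at least two out of four per-plate statistical tests; weak candidates meet just one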
Meaning of the calls: active = candidate regulator (raises or lowers reporter); inactive = not a candidate
In all, the deposit lists about 22,000 reagents; this is a random part of those with a known target gene and a result. In the full data, 233 (1.1%) were called active. 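Light values are raw, unnormalised plate reads; the ratio scores behind the reporter calls were not deposited.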 A plus sign joins genes that one reagent is predicted to hit. No sequences are given here. Not given: the amount of reagent, the time to read-out, the dose of the treatment.

After knock-down of CG6034 [DRSC10572], the record shows firefly reporter light, replicate 1 = 6804; Renilla control light, replicate 1 = 2968; inactive.
After knock-down of CG31806 [DRSC02787], the record shows firefly reporter light, replicate 1 = 1659; firefly reporter light, replicate 2 = 7002; Renilla control light, replicate 1 = 669; Renilla control light, replicate 2 = 3345; inactive.
Against asRNA:CR31144 + RpL3 [DRSC16834], the values are firefly reporter light, replicate 1 = 11404; Renilla control light, replicate 1 = 2712; inactive.
CG4101 [DRSC10400] showed firefly reporter light, replicate 1 = 5831; Renilla control light, replicate 1 = 2953; inactive.
With knock-down of TM9SF3 [DRSC09747] the results were firefly reporter light, replicate 1 = 1237; firefly reporter light, replicate 2 = 5760; Renilla control light, replicate 1 = 944; Renilla control light, replicate 2 = 3014; inactive.
CG14120 [DRSC10124] gave firefly reporter light, replicate 1 = 4261; Renilla control light, replicate 1 = 1805; inactive.
With knock-down of beat-Vc [DRSC12927], the screen gave firefly reporter light, replicate 1 = 2408; Renilla control light, replicate 1 = 981; inactive.
beat-Vc [DRSC14849] scored firefly reporter light, replicate 1 = 15942; Renilla control light, replicate 1 = 5093; inactive.
CG13282 [DRSC02254] scored firefly reporter light, replicate 1 = 1607; firefly reporter light, replicate 2 = 5797; Renilla control light, replicate 1 = 928; Renilla control light, replicate 2 = 2723; inactive.
CG13460 [DRSC10007] showed firefly reporter light, replicate 1 = 5008; Renilla control light, replicate 1 = 2316; inactive.
With knock-down of CG33181 [DRSC17971], the screen gave firefly reporter light, replicate 1 = 12805; Renilla control light, replicate 1 = 7673; inactive.
With knock-down of CG33181 [DRSC22376] the results were firefly reporter light, replicate 1 = 7.68e5; firefly reporter light, replicate 2 = 8.98e5; Renilla control light, replicate 1 = 3.72e5; Renilla control light, replicate 2 = 4.15e5; inactive.
